Experimental data taken from article doi:10.1101/2020.01.30.926501 (bioRxiv, 2020).
No constants are given. Whether binding was seen depends on the method and setting. Sequences can lack the tags named with a protein.

Target: Kif14(709)-eGFP (human) (UniProt Q15058)
Test: single-molecule GFP fluorescence intensity

binding: no binding
B1: Kif14(709)-eGFP (domain or fragment, UniProt Q15058 1-709)
chain: MSLHSTHNRNNSGDILDIPSSQNSSSLNALTHSSRLKLHLKSDMSECENDDPLLRSAGKVRDINRTYVISASRKTADMPLTPNPVGRLALQRRTTRNKESSLLVSELEDTTEKTAETRLTLQRRAKTDSAEKWKTAEIDSVKMTLNVGGETENNGVSKESRTNVRIVNNAKNSFVASSVPLDEDPQVIEMMADKKYKETFSAPSRANENVALKYSSNRPPIASLSQTEVVRSGHLTTKPTQSKLDIKVLGTGNLYHRSIGKEIAKTSNKFGSLEKRTPTKCTTEHKLTTKCSLPQLKSPAPSILKNRMSNLQVKQRPKSSFLANKQERSAENTILPEEETVVQNTSAGKDPLKVENSQVTVAVRVRPFTKREKIEKASQVVFMSGKEITVEHPDTKQVYNFIYDVSFWSFDECHPHYASQTTVYEKLAAPLLERAFEGFNTCLFAYGQTGSGKSYTMMGFSEEPGIIPRFCEDLFSQVARKQTQEVSYHIEMSFFEVYNEKIHDLLVCKDENGQRKQPLRVREHPVYGPYVEALSMNIVSSYADIQSWLELGNKQRATAATGMNDKSSRSHSVFTLVMTQTKTEFVEGEEHDHRITSRINLIDLAGSERCSTAHTNGDRLKEGVSINKSLLTLGKVISALSEQANQRSVFIPYRESVLTWLLKESLGGNSKTAMIATISPAASNIEETLSTLRYANQARLIVNIAKVNE
